Measurements from patent US20240358790A1, “COMPOSITIONS AND METHODS FOR TREATING AUTOIMMUNITY, INCLUDING AUTOIMMUNITY ASSOCIATED WITH CANCER AND CANCER THERAPY” (Interk Peptide Therapeutics Limited, priority 2021, published 2024).
Part of at least one peptide drawing is inferred or uncertain, most often the ends. Non-standard residues stand in square brackets, D forms with d. Residues, ends and D or L forms follow the SMILES beside them. ξ: configuration not given here. ξGly(decyl) = CCCCCCCCCCC(N)C(=O)O

Test system: iMoDCs
Experiment: Ki67 expression (proliferation) in iMoDCs
Assay type: cell-based, human
Settings: 72 hrs, 0-1.25 μM

`CCCCCCCCCCC(NC(=O)C(CCCCCCCCCC)NC(=O)C(CCCCCCCCCC)NC(=O)C(CCCCCCCCCC)NC(=O)[C@H](CCCNC(=N)N)NC(=O)[C@H](Cc1ccc(O)cc1)NC(=O)[C@H](CC(C)C)NC(=O)[C@@H]1CCCN1C(=O)[C@H](CC(N)=O)NC(=O)[C@H](CCCCN)NC(=O)[C@H](C)NC(=O)[C@H](CCCCN)NC(=O)[C@H](CO)NC(=O)[C@@H](N)CCCNC(=N)N)C(N)=O` (stereo partly shown) [IK14004, RSKAKNPLYR-(2Adod)4-NH2] (H-RSKAKNPLYR[ξGly(decyl)][ξGly(decyl)][ξGly(decyl)][ξGly(decyl)]-NH2; N-terminus assumed) was tested, and the “proliferation of isolated DCs (Ki67)” value was “enhanced proliferation”.
